Data from paper doi:10.1101/822270.
Results are given in words; binding and its absence hold for the method and conditions named. Binding seen in cells or lysates may run through a third protein. Some binding calls cover weakened binding; strength is not graded here. Sequences can lack the tags named with a protein.

Assays:
Assay in all cases: pull-down
TMTC4 S-tag (human) = target: T1, TMTC4 S-tag (human) (UniProt Q5T4D3)
T1 sequence: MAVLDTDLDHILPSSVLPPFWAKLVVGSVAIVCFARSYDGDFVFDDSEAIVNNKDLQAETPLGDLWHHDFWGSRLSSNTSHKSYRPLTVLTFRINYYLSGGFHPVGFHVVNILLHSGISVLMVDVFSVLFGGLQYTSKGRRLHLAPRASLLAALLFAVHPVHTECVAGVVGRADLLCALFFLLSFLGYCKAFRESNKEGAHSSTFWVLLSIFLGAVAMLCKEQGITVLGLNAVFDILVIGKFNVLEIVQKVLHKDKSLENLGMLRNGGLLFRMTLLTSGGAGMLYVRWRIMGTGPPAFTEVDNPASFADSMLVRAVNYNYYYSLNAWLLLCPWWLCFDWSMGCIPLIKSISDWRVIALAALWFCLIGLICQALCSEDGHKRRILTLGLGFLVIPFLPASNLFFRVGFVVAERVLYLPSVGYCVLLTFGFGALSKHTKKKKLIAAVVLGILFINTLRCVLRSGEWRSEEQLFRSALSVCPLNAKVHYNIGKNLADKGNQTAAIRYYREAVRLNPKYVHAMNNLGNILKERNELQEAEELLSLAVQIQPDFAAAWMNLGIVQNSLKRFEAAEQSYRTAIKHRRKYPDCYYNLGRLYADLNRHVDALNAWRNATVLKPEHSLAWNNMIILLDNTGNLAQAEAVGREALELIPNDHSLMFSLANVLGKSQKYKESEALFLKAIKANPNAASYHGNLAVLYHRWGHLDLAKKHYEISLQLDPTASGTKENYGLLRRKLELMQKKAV

TMTC1 S-tag = target: T2, TMTC1 S-tag (UniProt Q8IUR5)
T2 sequence: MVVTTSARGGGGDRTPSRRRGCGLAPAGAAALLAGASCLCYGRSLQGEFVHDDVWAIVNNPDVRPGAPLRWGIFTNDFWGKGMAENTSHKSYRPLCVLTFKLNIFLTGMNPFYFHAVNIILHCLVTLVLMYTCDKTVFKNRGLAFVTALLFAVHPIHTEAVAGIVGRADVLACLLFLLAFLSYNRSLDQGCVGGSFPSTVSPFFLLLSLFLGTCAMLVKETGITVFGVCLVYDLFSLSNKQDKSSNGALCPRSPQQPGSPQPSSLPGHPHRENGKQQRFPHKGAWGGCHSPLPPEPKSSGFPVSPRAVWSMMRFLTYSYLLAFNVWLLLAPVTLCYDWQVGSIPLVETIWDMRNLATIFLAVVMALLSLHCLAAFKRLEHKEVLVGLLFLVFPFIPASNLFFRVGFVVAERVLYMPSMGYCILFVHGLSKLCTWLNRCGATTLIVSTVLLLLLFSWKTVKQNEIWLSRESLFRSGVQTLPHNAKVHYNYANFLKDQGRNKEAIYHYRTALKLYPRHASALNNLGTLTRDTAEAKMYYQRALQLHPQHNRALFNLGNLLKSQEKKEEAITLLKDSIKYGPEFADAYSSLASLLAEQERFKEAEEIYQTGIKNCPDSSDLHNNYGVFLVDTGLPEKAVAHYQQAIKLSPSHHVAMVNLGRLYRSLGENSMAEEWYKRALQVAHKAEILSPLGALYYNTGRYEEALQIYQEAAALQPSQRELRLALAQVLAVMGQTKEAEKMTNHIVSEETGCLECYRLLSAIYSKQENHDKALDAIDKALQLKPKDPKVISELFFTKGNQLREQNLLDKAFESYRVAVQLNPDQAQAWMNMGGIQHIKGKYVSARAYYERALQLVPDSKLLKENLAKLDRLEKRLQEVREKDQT

TMTC2 S-tag = target: T3, TMTC2 S-tag (UniProt Q8N394)
T3 sequence: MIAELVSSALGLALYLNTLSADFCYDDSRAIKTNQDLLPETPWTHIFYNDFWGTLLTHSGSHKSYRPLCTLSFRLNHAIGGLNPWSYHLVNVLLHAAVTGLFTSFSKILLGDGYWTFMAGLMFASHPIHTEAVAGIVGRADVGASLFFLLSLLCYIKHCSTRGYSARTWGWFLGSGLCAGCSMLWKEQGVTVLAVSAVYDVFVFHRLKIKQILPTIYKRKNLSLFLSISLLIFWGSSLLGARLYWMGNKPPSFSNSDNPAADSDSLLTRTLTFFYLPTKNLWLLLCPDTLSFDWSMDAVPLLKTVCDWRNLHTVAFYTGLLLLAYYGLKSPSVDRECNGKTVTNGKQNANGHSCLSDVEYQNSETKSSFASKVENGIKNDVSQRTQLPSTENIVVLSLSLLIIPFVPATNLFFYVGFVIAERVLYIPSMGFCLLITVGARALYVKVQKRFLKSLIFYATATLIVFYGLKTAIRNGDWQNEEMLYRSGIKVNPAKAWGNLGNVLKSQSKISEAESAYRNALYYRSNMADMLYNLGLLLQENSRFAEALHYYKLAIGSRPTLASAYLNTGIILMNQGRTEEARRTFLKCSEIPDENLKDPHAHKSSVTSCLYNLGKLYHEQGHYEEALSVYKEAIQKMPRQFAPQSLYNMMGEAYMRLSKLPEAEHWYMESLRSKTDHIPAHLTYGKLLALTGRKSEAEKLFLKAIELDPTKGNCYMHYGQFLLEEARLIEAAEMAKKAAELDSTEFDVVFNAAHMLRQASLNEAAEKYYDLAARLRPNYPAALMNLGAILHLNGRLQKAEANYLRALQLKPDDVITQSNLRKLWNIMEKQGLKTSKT

TMTC3 S-tag (human) = target: T4, TMTC3 S-tag (human) (UniProt Q6ZXV5)
T4 sequence: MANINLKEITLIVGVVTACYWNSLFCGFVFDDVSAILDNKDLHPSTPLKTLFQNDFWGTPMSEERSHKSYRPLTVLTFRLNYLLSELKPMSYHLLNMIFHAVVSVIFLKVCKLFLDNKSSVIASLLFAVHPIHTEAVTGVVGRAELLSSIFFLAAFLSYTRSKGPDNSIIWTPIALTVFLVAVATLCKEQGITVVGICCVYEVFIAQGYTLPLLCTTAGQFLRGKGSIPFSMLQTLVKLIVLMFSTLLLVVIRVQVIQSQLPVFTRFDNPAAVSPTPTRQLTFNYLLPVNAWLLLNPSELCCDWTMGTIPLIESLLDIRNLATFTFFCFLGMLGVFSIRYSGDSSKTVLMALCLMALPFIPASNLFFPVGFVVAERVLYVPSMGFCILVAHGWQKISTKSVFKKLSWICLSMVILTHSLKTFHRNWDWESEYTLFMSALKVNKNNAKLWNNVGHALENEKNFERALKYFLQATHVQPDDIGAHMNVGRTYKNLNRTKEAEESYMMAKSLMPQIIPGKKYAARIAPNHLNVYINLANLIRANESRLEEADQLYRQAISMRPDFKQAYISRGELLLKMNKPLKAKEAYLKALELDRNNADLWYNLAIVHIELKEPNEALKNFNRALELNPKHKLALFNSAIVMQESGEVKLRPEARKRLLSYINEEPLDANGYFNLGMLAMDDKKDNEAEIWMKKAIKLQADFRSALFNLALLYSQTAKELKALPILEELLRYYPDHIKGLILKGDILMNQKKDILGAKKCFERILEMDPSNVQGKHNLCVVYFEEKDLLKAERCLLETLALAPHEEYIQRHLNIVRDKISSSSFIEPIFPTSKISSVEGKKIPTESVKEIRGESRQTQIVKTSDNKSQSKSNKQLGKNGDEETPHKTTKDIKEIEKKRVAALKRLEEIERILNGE

binding (TMTC4 S-tag (human)): binds
binding (TMTC1 S-tag): binds
binding (TMTC2 S-tag): binds
binding (TMTC3 S-tag (human)): no binding
Substance: SERCA2B (from UniProt P16615-1 1-1042)
